Where two headings read alike, the source gives them in different places. These are yes or no findings as the source states them, for the method shown. Binding seen in cells or lysates may run through a third protein. Some entries that bind do so weakly or less than the wild type.
Columns and labels:
Experiment in all cases: co-IP
NIPBL (human) [1] = target: NIPBL (human) (UniProt Q6KC79)
NIPBL (human) [2] = target: NIPBL (human) (UniProt Q6KC79); remark: listed apart in the source
[3] = target: FLAG-tagged full-length NIPBL (human) (UniProt Q6KC79)
NIPBL (human) [4] = target: NIPBL (human) (UniProt Q6KC79); remark: listed apart in the source
Rad21 = target: T1, Rad21 (UniProt O60216)
T1 sequence: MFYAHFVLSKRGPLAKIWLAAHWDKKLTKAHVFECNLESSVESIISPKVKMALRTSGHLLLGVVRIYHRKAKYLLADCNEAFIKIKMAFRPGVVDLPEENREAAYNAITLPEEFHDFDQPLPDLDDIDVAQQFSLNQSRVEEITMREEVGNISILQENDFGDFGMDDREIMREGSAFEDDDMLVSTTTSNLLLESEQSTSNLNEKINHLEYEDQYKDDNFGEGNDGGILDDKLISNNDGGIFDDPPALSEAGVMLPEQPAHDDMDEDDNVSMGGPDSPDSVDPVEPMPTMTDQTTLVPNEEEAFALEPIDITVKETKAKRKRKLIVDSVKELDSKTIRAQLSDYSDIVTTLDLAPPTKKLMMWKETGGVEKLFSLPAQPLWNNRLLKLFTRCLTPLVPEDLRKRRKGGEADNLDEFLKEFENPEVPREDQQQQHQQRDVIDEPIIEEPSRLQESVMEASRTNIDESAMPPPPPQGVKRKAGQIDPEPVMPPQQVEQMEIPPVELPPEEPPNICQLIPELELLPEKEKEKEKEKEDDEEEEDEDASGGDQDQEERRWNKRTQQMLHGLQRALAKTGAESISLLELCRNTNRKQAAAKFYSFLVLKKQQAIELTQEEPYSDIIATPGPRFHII

Protein sequences, listed by entry. Tags and fused reporters are not part of them.
UniProt Q6KC79: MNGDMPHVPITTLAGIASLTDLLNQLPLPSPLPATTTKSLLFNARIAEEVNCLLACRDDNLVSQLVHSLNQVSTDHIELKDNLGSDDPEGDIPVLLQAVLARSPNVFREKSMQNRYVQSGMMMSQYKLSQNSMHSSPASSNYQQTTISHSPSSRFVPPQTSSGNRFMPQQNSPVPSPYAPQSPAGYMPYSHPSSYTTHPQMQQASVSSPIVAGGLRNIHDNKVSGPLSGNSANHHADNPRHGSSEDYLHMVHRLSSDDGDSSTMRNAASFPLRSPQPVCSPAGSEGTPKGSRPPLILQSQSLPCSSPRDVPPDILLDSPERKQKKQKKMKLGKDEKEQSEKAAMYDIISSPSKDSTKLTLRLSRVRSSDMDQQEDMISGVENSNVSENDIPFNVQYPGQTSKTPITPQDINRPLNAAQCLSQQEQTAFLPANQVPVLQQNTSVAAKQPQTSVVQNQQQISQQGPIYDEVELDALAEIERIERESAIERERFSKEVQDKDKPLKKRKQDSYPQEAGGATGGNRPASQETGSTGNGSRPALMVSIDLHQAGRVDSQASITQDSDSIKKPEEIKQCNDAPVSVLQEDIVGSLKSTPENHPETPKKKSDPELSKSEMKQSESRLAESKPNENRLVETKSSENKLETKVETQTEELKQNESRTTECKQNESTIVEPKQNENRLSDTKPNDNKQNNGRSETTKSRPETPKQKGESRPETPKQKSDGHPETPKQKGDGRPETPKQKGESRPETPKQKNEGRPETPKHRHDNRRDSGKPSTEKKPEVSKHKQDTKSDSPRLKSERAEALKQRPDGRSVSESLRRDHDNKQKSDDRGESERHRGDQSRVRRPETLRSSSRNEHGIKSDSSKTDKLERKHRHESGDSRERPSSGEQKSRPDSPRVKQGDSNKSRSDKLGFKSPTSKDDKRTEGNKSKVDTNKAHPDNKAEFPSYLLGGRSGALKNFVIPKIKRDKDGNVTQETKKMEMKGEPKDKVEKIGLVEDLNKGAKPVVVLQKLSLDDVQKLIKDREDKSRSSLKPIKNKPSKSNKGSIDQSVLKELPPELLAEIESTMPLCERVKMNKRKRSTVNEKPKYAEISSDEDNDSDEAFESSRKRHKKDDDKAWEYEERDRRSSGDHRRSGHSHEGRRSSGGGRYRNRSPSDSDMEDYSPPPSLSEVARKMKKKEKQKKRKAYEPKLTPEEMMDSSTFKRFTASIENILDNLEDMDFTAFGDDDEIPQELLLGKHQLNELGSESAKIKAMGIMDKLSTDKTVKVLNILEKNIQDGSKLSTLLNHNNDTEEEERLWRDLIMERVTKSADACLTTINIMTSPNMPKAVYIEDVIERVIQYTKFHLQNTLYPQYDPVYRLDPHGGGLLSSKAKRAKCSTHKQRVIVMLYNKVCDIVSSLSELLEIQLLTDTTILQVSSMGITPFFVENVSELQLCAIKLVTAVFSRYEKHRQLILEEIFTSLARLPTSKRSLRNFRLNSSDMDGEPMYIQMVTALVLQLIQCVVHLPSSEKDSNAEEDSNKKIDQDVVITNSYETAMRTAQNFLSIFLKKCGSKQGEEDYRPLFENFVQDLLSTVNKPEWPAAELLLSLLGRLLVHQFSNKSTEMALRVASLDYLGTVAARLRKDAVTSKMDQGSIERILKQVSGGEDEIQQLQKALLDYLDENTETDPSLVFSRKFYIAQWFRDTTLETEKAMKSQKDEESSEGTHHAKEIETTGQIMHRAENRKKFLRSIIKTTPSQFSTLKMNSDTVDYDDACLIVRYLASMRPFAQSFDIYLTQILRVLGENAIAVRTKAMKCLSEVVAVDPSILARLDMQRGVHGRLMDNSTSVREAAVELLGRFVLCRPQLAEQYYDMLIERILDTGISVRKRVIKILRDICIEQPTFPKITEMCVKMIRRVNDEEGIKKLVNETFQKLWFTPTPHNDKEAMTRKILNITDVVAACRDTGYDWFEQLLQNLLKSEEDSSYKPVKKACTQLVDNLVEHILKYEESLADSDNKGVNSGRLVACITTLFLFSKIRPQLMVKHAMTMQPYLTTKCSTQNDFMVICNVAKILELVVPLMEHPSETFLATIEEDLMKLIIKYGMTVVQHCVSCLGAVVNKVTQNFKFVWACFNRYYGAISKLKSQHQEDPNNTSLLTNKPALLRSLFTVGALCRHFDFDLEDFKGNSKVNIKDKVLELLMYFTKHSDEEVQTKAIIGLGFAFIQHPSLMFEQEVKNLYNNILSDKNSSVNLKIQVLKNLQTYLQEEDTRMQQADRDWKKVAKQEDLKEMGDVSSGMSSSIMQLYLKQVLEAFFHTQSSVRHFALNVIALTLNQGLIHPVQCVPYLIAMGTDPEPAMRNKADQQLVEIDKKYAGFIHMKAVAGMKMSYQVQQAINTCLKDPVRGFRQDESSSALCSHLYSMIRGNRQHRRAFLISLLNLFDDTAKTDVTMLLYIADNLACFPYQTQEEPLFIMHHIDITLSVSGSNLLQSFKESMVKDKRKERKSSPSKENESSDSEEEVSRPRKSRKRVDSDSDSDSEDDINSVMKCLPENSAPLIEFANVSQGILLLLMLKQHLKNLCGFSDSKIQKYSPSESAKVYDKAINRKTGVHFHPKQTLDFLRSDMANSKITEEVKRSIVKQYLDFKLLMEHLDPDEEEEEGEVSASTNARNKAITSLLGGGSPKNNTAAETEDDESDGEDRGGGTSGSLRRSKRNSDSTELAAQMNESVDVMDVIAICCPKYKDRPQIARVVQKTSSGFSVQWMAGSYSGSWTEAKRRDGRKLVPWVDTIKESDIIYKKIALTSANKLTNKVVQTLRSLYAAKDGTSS

B1: treacle (protein, UniProt Q13428 1-1488)
chain: MAEARKRRELLPLIYHHLLRAGYVRAAREVKEQSGQKCFLAQPVTLLDIYTHWQQTSELGRKRKAEEDAALQAKKTRVSDPISTSESSEEEEEAEAETAKATPRLASTNSSVLGADLPSSMKEKAKAETEKAGKTGNSMPHPATGKTVANLLSGKSPRKSAEPSANTTLVSETEEEGSVPAFGAAAKPGMVSAGQADSSSEDTSSSSDETDVEGKPSVKPAQVKASSVSTKESPARKAAPAPGKVGDVTPQVKGGALPPAKRAKKPEEESESSEEGSESEEEAPAGTRSQVKASEKILQVRAASAPAKGTPGKGATPAPPGKAGAVASQTKAGKPEEDSESSSEESSDSEEETPAAKALLQAKASGKTSQVGAASAPAKESPRKGAAPAPPGKTGPAVAKAQAGKREEDSQSSSEESDSEEEAPAQAKPSGKAPQVRAASAPAKESPRKGAAPAPPRKTGPAAAQVQVGKQEEDSRSSSEESDSDREALAAMNAAQVKPLGKSPQVKPASTMGMGPLGKGAGPVPPGKVGPATPSAQVGKWEEDSESSSEESSDSSDGEVPTAVAPAQEKSLGNILQAKPTSSPAKGPPQKAGPVAVQVKAEKPMDNSESSEESSDSADSEEAPAAMTAAQAKPALKIPQTKACPKKTNTTASAKVAPVRVGTQAPRKAGTATSPAGSSPAVAGGTQRPAEDSSSSEESDSEEEKTGLAVTVGQAKSVGKGLQVKAASVPVKGSLGQGTAPVLPGKTGPTVTQVKAEKQEDSESSEEESDSEEAAASPAQVKTSVKKTQAKANPAAARAPSAKGTISAPGKVVTAAAQAKQRSPSKVKPPVRNPQNSTVLARGPASVPSVGKAVATAAQAQTGPEEDSGSSEEESDSEEEAETLAQVKPSGKTHQIRAALAPAKESPRKGAAPTPPGKTGPSAAQAGKQDDSGSSSEESDSDGEAPAAVTSAQVIKPPLIFVDPNRSPAGPAATPAQAQAASTPRKARASESTARSSSSESEDEDVIPATQCLTPGIRTNVVTMPTAHPRIAPKASMAGASSSKESSRISDGKKQEGPATQVSKKNPASLPLTQAALKVLAQKASEAQPPVARTQPSSGVDSAVGTLPATSPQSTSVQAKGTNKLRKPKLPEVQQATKAPESSDDSEDSSDSSSGSEEDGEGPQGAKSAHTLGPTPSRTETLVEETAAESSEDDVVAPSQSLLSGYMTPGLTPANSQASKATPKLDSSPSVSSTLAAKDDPDGKQEAKPQQAAGMLSPKTGGKEAASGTTPQKSRKPKKGAGNPQASTLALQSNITQCLLGQPWPLNEAQVQASVVKVLTELLEQERKKVVDTTKESSRKGWESRKRKLSGDQPAARTPRSKKKKKLGAGEGGEASVSPEKTSTTSKGKAKRDKASGDVKEKKGKGSLGSQGAKDEPEEELQKGMGTVEGGDQSNPKSKKEKKKSDKRKKDKEKKEKKKKAKKASTKDSESPSQKKKKKKKKTAEQTV
B1 was tested, and the binding (NIPBL (human) [1]) was “binds”, the binding (NIPBL (human) [2]) was “binds” and the binding [3] was “binds”. For the same binder, the binding (NIPBL (human) [4]) was “binds” and the binding (Rad21) was “no binding”.

Source: paper doi:10.1101/658492
